Test results as given in the supplement of paper PMC5949888.
Most values lie at the floor of the assay. Slopes are relative: functional sequences can read slightly below zero.

Tested on: Saccharomyces cerevisiae PS128 hsf1 delta, HSF1(1-493) fusion
Experiment: growth estimate (transactivation domain function in HSF1 fusion, heat-shock survival) (a.u. (slope of normalised read count over time)); higher = stronger growth at 37°C, i.e. more transactivation activity
Details: library: random library

Substance	growth estimate
GLRSMYLGNT	< -0.25
LLKTLL	-0.186
